Patent US8729035B2, “Synthesis of novel neamine derivatives and use thereof as antibacterial agents” (Universite Joseph Fourier, priority 2008, dated 2014)
Some entries share one result that the patent states for a list of compounds.

System: C. amalonaticus 06AB0010 arm
Test: MIC determination on r-methylase-expressing resistant Gram (-) bacteria
Assay type: cell-based, Citrobacter amalonaticus
Conditions: resistant bacteria expressing an RNA methylation enzyme (r-methylase); one value stated for the three strains together; 24 hours incubation
Description: The molecules were dissolved in water or DMSO at a concentration of 5 or 10 mg/mL, then the solutions were diluted if necessary. A volume of 200 μL of each of them was put onto a 96-well plate.
C—Determination of the MIC
The molecules with a screening score of 10 or 100 were selected to determine their MICs relative to the strains tested.
As for the validation of the strains, the solution of the molecule selected was diluted by a factor of 2, times 2, using the Biomek2000 robot in 96-well plates to cover a wide range of concentrations. To each of these wells was added a volume of inoculum made from the previous days preculture diluted to 1/100th strength. Each well was repeated. Again, controls of non-contamination, growth and resistance/sensitivity to a reference antibiotic were included in the experiment. The plate was incubated at 37° C., and the kinetics of the bacterial proliferation were monitored over 24 hours, by measuring the OD620 nm at 0, 1, 4, 7, and 24 hours.
The MIC was the lowest concentration found to be capable of inhibiting bacterial proliferation after 24 hours incubation. Having no previous idea of this value it was possible that it might not fall within the range of dilutions chosen. If this was the case the operation had to be repeated adjusting this range.
Similar measurements were made on various Gram (−) bacteria. […]

“3′,4′,6-O,O′,O″-tri(naphthyl-2-methylene) neamine [3′,4′,6-tri2NM]” was tested, and the MIC was 4 to 16 µg/mL.
